Test results: publication PMC12809078
These are yes or no findings as the source states them, for the method shown. For part of these data: Binding seen in cells or lysates may run through a third protein. Some entries that bind do so weakly or less than the wild type.

Protein sequences, listed by entry. Tags and fused reporters are not part of them.
UniProt Q9H9B1: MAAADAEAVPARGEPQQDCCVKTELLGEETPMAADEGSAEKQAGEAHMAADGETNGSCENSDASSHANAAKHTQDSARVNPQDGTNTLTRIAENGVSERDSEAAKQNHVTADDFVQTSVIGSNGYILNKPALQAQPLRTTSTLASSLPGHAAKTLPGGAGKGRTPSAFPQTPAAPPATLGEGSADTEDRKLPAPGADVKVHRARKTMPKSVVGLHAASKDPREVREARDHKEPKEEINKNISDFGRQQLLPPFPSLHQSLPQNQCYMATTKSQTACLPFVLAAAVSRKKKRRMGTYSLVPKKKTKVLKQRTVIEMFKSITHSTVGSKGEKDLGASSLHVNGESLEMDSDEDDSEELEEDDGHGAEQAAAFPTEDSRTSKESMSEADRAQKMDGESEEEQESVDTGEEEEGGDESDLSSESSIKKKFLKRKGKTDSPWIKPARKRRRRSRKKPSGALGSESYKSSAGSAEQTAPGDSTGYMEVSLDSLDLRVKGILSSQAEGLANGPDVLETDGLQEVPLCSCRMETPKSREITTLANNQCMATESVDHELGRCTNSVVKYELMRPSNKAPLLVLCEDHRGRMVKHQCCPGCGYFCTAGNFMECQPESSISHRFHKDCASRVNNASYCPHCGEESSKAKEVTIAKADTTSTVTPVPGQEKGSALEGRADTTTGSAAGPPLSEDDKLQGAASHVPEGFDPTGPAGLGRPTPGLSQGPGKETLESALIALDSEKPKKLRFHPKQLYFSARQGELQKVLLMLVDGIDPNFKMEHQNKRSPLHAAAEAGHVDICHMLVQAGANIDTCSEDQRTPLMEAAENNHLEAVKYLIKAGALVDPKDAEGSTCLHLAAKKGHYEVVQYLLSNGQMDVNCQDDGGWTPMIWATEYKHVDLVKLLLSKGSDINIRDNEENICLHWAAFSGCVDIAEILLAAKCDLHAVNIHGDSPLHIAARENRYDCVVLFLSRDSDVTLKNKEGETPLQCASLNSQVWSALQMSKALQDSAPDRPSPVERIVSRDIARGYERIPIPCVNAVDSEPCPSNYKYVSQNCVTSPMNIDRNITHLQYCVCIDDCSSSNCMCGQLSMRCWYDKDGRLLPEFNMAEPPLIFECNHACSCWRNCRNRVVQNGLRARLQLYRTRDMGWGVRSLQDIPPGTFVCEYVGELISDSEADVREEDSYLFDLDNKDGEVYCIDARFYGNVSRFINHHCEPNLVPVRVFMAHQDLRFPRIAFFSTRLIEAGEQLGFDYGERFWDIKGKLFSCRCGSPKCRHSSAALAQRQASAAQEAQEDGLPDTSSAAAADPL

Tests used:
[1] = target: CtBP2^Monomer (R147A, R148A, R169A, R177A)-FLAG (human) (UniProt P56545); experiment: co-IP; two-tag co-IP: HEK293T co-transfected with matched CtBP2-FLAG and CtBP2-Myc (WT/WT or mutant/mutant); anti-FLAG resin, blot for Myc
[2] = target: CtBP2^Monomer (R147A/R148A/R169A/R177A), recombinant (human) (UniProt P56545); experiment: SEC; Superose 6 Increase 10/300 GL; 20 mM Tris-HCl pH 8.0, 150 mM NaCl, 2 mM DTT; 0.35 ml/min; both purified
[3] = target: CtBP2-(1-445)-FLAG (human) (UniProt P56545); experiment: co-IP; HEK293T co-transfected with CtBP2-FLAG and Myc-tagged G9a or GLP; anti-FLAG resin, FLAG peptide elution, Western blot

With “CtBP2^Monomer (R147A, R148A, R169A, R177A)-FLAG (from UniProt P56545 1-445)” the binding [1] was “no binding”.
In the case of “CtBP2^Monomer (R147A/R148A/R169A/R177A), recombinant (from UniProt P56545 1-445)”, the binding [2] is reported as “no binding”.
In the case of “GLP-(1-1298)-Myc (from UniProt Q9H9B1 1-1298)”, the binding [3] is reported as “binds”.
